Several values for one entry are separate records, joined by “and”; a condition that tells them apart may be missing. Equal entries are not always repeated. About 6,100 (1.1%) of roughly 580,000 compounds were called active. Inconclusive means that the source gave no clear call. Such entries were picked first, then a sample of the others. The call rests on the fitted dose curve; in most records, active means well fitted inhibition curve with a large enough effect; inconclusive means small, poorly fitted or top-dose-only effect, or another doubt; inactive means no such curve, though single readings can be large or run the other way. A potency beside an inconclusive call is a rough fit, not a confirmed value.
What follows are molecules tested against Polyunsaturated fatty acid lipoxygenase ALOX12 (Homo sapiens) (UniProt P18054) (assay: Primary qHTS assay for inhibitors of human arachidonate 12S-lipoxygenase (ALOX12): Round 2). Settings: purified 12hLO, xylenol orange hydroperoxide absorbance; activity change, negative = inhibition: at 108 µM (top of the series) unless noted.
How it was run: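 Purified human 12hLO at 150 nM in 25 mM Hepes, 0.01% Triton X-100, pH 7.0, preincubated 15 min at room temperature with compound. Reaction started with 40 uM arachidonic acid, 30 min at room temperature. Hydroperoxide measured by Fe-xylenol orange, 573/405 nm absorbance ratio.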
On the % scale 0 is the no-effect control and ±100 the full control effect; potency means the concentration at half of the fitted maximal effect.

Protein sequences, listed by entry. Tags and fused reporters are not part of them. Lines headed by an entry give the natural chain unless they say otherwise; changes in a name come on top.
UniProt P18054: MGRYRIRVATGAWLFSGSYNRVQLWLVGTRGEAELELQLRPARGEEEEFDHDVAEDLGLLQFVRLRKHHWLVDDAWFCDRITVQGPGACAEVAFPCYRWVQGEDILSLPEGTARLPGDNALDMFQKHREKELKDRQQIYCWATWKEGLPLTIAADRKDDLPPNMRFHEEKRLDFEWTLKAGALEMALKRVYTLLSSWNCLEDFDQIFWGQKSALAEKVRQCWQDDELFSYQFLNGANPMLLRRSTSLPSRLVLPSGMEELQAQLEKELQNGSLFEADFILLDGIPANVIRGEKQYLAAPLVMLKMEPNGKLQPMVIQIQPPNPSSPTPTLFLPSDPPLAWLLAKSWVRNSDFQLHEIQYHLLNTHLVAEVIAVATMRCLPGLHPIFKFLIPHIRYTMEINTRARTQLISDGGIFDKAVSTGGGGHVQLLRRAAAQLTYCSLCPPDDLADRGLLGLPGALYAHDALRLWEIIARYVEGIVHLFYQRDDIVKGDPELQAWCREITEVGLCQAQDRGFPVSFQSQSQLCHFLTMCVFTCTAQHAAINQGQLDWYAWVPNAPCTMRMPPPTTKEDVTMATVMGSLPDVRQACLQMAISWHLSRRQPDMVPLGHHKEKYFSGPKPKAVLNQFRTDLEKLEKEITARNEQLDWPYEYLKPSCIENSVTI

Compound | activity change, negative = inhibition | Potency
Cc1nn2c(c1-c1cccnc1N1CCOCC1)N(Cc1ccc3c(c1)CCO3)CCC2 | inactive: 53.2% [at 176 µM] | –
Cc1c(Cl)cccc1NC(=O)COC(=O)c1cc(=O)c2ccccc2o1 | – | inconclusive: 50.1 µM [inhibitor, partial curve, poor fit]
O=C(c1ccco1)N1CCCCCC1CN1CCOCC1 (centres undefined) | – | inconclusive: 8.91 µM [inhibitor, full curve, poor fit]
CCOC(=O)c1nsnc1NCCSC(=N)N | – | active: 44.7 µM
Cc1ccc(C)c(S(=O)(=O)N2CCCCC2CCNC(=O)C(=O)NCc2cccnc2)c1 (centres undefined) | inactive: 12.7% | –
COc1ccc(CC2(CO)CCN(Cc3c(C)nn(C(C)C)c3C)CC2)cc1 | – | inconclusive: 20 µM [inhibitor, partial curve, poor fit]
CCOCCOC(=O)c1nc2ccccc2nc1Nc1cccc(C)c1C | – | inconclusive: 15.8 µM [inhibitor, partial curve]
CCN(Cc1ccncc1)C(=O)c1ccco1 | – | inconclusive: 44.7 µM [inhibitor, partial curve, poor fit]
Cc1[nH]n(S(=O)(=O)c2ccccc2)c(=O)c1N=Nc1cccc(Cl)c1 | – | inconclusive: 28.2 µM [inhibitor, single point]
S=c1[nH]c2cnc(Cl)nc2[nH]1 | – | inconclusive: 28.2 µM [inhibitor, partial curve]
Cc1cc(-c2nc3ncccc3o2)ccc1NC(=O)CC12CC3CC(CC(C3)C1)C2 | – | inconclusive: 44.7 µM [inhibitor, single point]
O=C(OCc1cccc(F)c1)c1ccc(C2Nc3ccccc3S(=O)(=O)N2)cc1 (centres undefined) | inactive: 15.7% | –
O=C(Nc1nc2ccsc2c(=O)s1)C1CCC1 | inactive: 44.9% | –
Oc1c(C(c2ccccn2)N2CCC(Cc3ccccc3)CC2)cc(Cl)c2cccnc12 (centres undefined) | – | inconclusive: 17.8 µM [inhibitor, partial curve]
CCOC(=O)c1ccc(N/N=C/c2cc(Br)cc([N+](=O)[O-])c2O)cc1 | – | inconclusive: 10 µM [inhibitor, full curve, poor fit]
O=C(N/N=C/c1cccs1)c1ccccc1 | inactive: 35.2% | –
COc1ccc(C(=O)N(Cc2ccc(N(C)C)cc2)Cc2ccco2)cc1Cl | inactive: 0% | –
Cc1cc(-c2ccc(C)c(S(=O)(=O)Nc3ccccc3C(F)(F)F)c2)on1 | – | inconclusive: 141 µM [inhibitor, partial curve, poor fit]
O=C(NC(=S)NCc1ccccc1)c1cccc([N+](=O)[O-])c1 | – | inconclusive: 39.8 µM [inhibitor, partial curve, poor fit]
Cc1ccccc1-c1cncnc1NCc1ccccc1 | – | inconclusive: 39.8 µM [inhibitor, partial curve, poor fit]
CC(=O)c1sc2nc(C)c3c(c2c1N)CCCC3 | – | inconclusive: 100 µM [inhibitor, partial curve, poor fit]
CCOc1cccc(/C=N/N2C(=O)CSC2=S)c1O | – | active: 31.6 µM

Copied from above, 2 compounds:
Compound | activity change, negative = inhibition | Potency
O=C(c1ccco1)N1CCCCCC1CN1CCOCC1 (centres undefined) | – | inconclusive: 8.91 µM [inhibitor, full curve, poor fit]
CCOC(=O)c1nsnc1NCCSC(=N)N | – | active: 44.7 µM

(next part)

Compound | activity change, negative = inhibition | Potency
Cc1ccc2c(CC(=O)NCc3ccccc3)coc2c1C | – | inconclusive: 126 µM [inhibitor, partial curve, poor fit]
O=c1c2ccccc2nnn1CSc1ncnc2ccccc12 | inactive: 156% | –
CCCCCc1c(-c2ccccc2OC)ncn1CCc1ccccc1OC | inactive: -46.9% | –
O=C1CN(C(=O)C2CCN(c3nc4ccccc4o3)CC2)CCN1 | inactive: -7.52% | –
COc1cc(F)ccc1-c1ccc(COc2ccc3c(cnn3CCC(=O)O)c2)cc1 | – | inconclusive: 50.1 µM [inhibitor, full curve]
CCn1c(N2CCN(Cc3ccc(Cl)c(Cl)c3)CC2)nc2c1c(=O)[nH]c(=O)n2C | inactive: -4.94% | –
CC(C)NC(=S)NNc1nc2ccccc2s1 | – | inconclusive: 44.7 µM [inhibitor, partial curve, poor fit]
COCCn1c(SCc2ccccc2)nc2c1c(=O)[nH]c(=O)n2C | – | inconclusive: 100 µM [inhibitor, partial curve, poor fit]
COc1ccc(C/C(C)=N/NC(=S)Nc2ccccc2F)cc1 | – | inconclusive: 50.1 µM [inhibitor, partial curve, poor fit]
CCNC(=S)N1CCN(S(=O)(=O)c2ccc(Cl)s2)CC1 | – | inconclusive: 44.7 µM [inhibitor, partial curve, poor fit]
Cc1ccccc1-n1nnnc1SCc1ncc(-c2ccccc2)o1 | – | inconclusive: 50.1 µM [inhibitor, partial curve, poor fit] and inconclusive: 17.8 µM [inhibitor, full curve, poor fit]
O=C(Cc1ccc(Br)cc1)N1CCN(c2ccc(F)cc2)CC1 | – | inactive and inconclusive: 39.8 µM [inhibitor, partial curve]
NC(=O)C(OC(=O)c1ccccc1)C(OC(=O)c1ccccc1)C(=O)O (centres undefined) | – | inconclusive: 31.6 µM [inhibitor, partial curve]
COc1cc(OC)cc(-c2cc3ccc(F)cc3cn2)c1 | – | inconclusive: 70.8 µM [inhibitor, single point]
COc1ccc(CNC(=O)CN2CCC(NC(=O)c3cccc(OC)c3)CC2)cc1 | – | inconclusive: 0.631 µM [inhibitor, full curve, poor fit]
COc1cc(OC)cc(C(=O)N2CCC(N3CCCC3)CC2)c1 | – | inconclusive: 0.501 µM [inhibitor, full curve]
Cc1ccc(NC(=O)CSc2nnc3nc(C)cc(C)n23)cc1 | – | inconclusive: 4.47 µM [inhibitor, full curve, poor fit]
Cc1ccc2c(c1)C(=O)C(=O)N2Cc1ccc(F)cc1 | – | inconclusive: 44.7 µM [inhibitor, partial curve, poor fit]
Cc1ccc(-n2ncc(C(=O)NCCCN3CCCCC3)c2C2CCN(C(=O)OC(C)(C)C)CC2)c(C)c1 | – | inconclusive: 100 µM [inhibitor, partial curve, poor fit]
COc1ccc(OC)c(NC(=O)CCn2nc(-c3ccccc3OC)c3c(C)cc(C)nc32)c1 | – | inconclusive: 126 µM [inhibitor, partial curve, poor fit]
CCCn1cnc2nc(CSc3ccccc3NC(=O)COc3cccc(F)c3)cc(=O)n21 | inactive: -13.8% | –
Cn1c(=O)[nH]c(=O)c2c1nc(N1CCCCCC1)n2CCN1CCCCCC1 | – | inconclusive: 50.1 µM [inhibitor, partial curve, poor fit]

Compound | activity change, negative = inhibition | Potency
O=C(Nc1cccc(Cl)c1)c1cc(-c2ccc[nH]2)n[nH]1 | – | inconclusive: 28.2 µM [inhibitor, partial curve]
Brc1ccc2[nH]c3nc(SCCN4CCOCC4)nnc3c2c1 | – | inconclusive: 1.58 µM [inhibitor, full curve, poor fit]
COc1ccc(-c2c(C)oc3cc(OS(C)(=O)=O)ccc3c2=O)cc1OC | – | inconclusive: 44.7 µM [inhibitor, partial curve, poor fit]
CCCn1c(N)c(C(=O)CSc2nnc(Cc3cccs3)n2C2CC2)c(=O)n(C)c1=O | inactive: 402% | –
c1nc(N2CCC3(CC2)OCCO3)c2c3c(sc2n1)CCCC3 | – | inconclusive: 89.1 µM [inhibitor, partial curve, poor fit]
CCN1C(=O)[C@H]2[C@@H](c3ccc(C)cc3)N3C(=O)N(c4ccc(C)cc4)C(=O)[C@@]3(Cc3ccccc3)[C@H]2C1=O | – | inconclusive: 44.7 µM [inhibitor, partial curve, poor fit]
Cc1sc(NC(=O)c2ccccc2)c(C(c2ccccn2)N2CCCCC2)c1C (centres undefined) | – | inconclusive: 50.1 µM [inhibitor, partial curve, poor fit]
CC(C)(C)c1ccc(C(=O)NCCC(=O)NC2=NCCS2)cc1 | – | inconclusive: 89.1 µM [inhibitor, partial curve, poor fit]
O=C1CCC(/C=C/c2ccccc2)=NN1Cc1ccc(Cl)c(Cl)c1 | – | inconclusive: 22.4 µM [inhibitor, partial curve, poor fit]
C=CCn1c(SCc2cccc(C)c2)nc2c1c(=O)n(C)c(=O)n2C | – | inconclusive: 44.7 µM [inhibitor, partial curve, poor fit]
O=C(Nc1nc2ccc(Cl)cc2s1)[C@@H]1CCCN1C(=O)c1cccs1 | – | inconclusive: 44.7 µM [inhibitor, partial curve, poor fit]
O=c1c2c(n(Cc3cccnc3)n1-c1ccccc1)CN(Cc1ccccc1Cl)CC2 | – | inconclusive: 50.1 µM [inhibitor, full curve]
Cc1ccc(CNc2oc(-c3ccco3)nc2C#N)cc1 | – | inconclusive: 25.1 µM [inhibitor, single point]
CC=CCn1c(SCc2ccccc2)nc2c1c(=O)[nH]c(=O)n2C | – | inconclusive: 50.1 µM [inhibitor, partial curve, poor fit]
Nc1nccnc1C(=O)NCCNc1ncccn1 | inactive: 0.852% | –
Cn1c(COc2ccc(Cl)cc2)nc2ccccc2c1=O | – | inconclusive: 22.4 µM [inhibitor, full curve]
O=C(CSc1nc(-c2cccc(Cl)c2)nc2cc(=O)[nH]n12)Nc1ccccc1 | inconclusive: -38.4% [inhibitor] | –
CCN1/C(=C/c2cc[n+](C)cc2)C=Cc2cc(C)ccc21 | – | inconclusive: 28.2 µM [inhibitor, partial curve, poor fit]
CC1CCCN(C(=O)/C(=C/c2ccco2)NC(=O)c2ccccc2)C1 (centres undefined) | – | inconclusive: 70.8 µM [inhibitor, partial curve, poor fit]
CCOC(=O)C1=NN(c2ccccc2)C(=O)/C1=C\c1ccc(N(C)C)cc1 | – | inconclusive: 12.6 µM [inhibitor, partial curve, poor fit]

An excerpt of these results, in markdown:

| Compound | activity change, negative = inhibition | Potency |
| --- | --- | --- |
| Cn1c(COc2ccc(Cl)cc2)nc2ccccc2c1=O | – | inconclusive: 22.4 µM [inhibitor, full curve] |
| CC1CCCN(C(=O)/C(=C/c2ccco2)NC(=O)c2ccccc2)C1 (centres undefined) | – | inconclusive: 70.8 µM [inhibitor, partial curve, poor fit] |
